At least one compound was matched to its structure with a doubt left.
Tested on: HC e/n XVB cells
Assay: Electrophysiology: whole-cell patch-clamp, ligand-activated currents
Assay type: cell-based, murine
Protocol: Electrophysiological setup: Membrane currents were measured with the patch-clamp technique in the whole-cell recording configuration (Hamill et al. 1981, Pfluegers Arch. 391:85-100). Current signals were amplified with conventional electronics (EPC-9 amplifier, HEKA Elektronik GmbH, Lambrecht, Germany), filtered at 10kHz, and sampled at 5 kHz by an interface connected to an IBM AT-compatible computer system, which also served as a stimulus generator.
Solutions and electrodes: The standard bathing solution contained (in mM): Nacl 150, KCL 5, MgCl2 1.8, HEPES 5, and glucose 10. In some experiments an equimolar amount of NaCl was replaced by 5mM BaCl2. Recording pipettes had resistances about 5MΩ (Hilgenberg, Malsfeld, Germany). The pipettes contained (in mM): KCL 140, CaCl2 0.5, EGTA 5, MgCl2 2, and HEPES 10. The pH was adjusted to 7.4. In some experiments the pipette solution was designed to minimize the contribution of voltage-activated currents. In this case, investigating the ligand-activated currents, the pipette solution contained (in mM): CsCl 140, EGTA 10, and HEPES 10.
Ligands were dissolved in the extracellular saline solution and applied via an U-tube application system. To record ligand-induced currents, the membrane potential was clamped to -70mV. For measurements of voltage-activated currents, cells were held at -70mV and every second the membrane was stepped through a 50 msec. de- or hyperpolarising test pulse to a potential between -170 and +20 mV.

[1] = undifferentiated HC e/n XVB cells

Row | Compound | ligand-activated currents (XV. B (with EGF, undifferentiated), membrane potential clamped to -70mV) | ligand induced inward currents [1] | ligand induced inward currents (differentiated HC e/n XVB cells, AMPA 100µM, NMDA, kainate, glutamate 1mM)
1 | CC(=O)OCC[N+](C)(C)C [Acetylcholine, acetylcholine] | + / - | only a minority | –
2 | N[C@@H](CCC(=O)O)C(=O)O [Glutamate, L-glutamate] | – | only small inward currents | evoked responses with different peak amplitudes

— patent EP0773292A1, “Immortalised embryonic hippocampal cells and their use” (BAYER AG, priority 1995, dated 1997)
